38 compounds from PubChem BioAssay AID2685 (National Center for Advancing Translational Sciences (NCATS), 2010) can be followed below.

The term AC50 denotes the midpoint of the concentration-response curve, whichever way the signal moves. Low readings indicate greater potency, high ones weaker potency.

SMILES strings stand for the structures. The list shows a part of the results. Further columns of the screen follow, without active or inactive calls. Most of these compounds were active or inconclusive in the main read-out, so they are no random draw. Words in brackets tell the shape of the fitted curve; partial curves, single points and poor fits give uncertain potencies.

The nature of the assay: qHTS Assay for Lipid Storage Modulators in Drosophila S3 Cells.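 For cell number change: cells counted by Cell Tracker Red CMTPX staining in the red channel.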 As to conditions: BODIPY lipid droplet fluorescence, 18-24 h; for cell number change: measured here: cell count max response, cells fed with added oleic acid. The essentials: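 Laser-scanning cytometry quantifies lipid droplet accumulation (500–530 nm total intensity; droplet/cell object ratio) in oleic acid-fed (400 uM added) Drosophila S3 cells treated with a concentration series. 20 uM Triacsin C defined 100% inhibition.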

[1] abbreviates: measured here: lipid fluorescence (Fed channel) AC50, cells fed with added oleic acid.
The mark [2] stands for this setting: measured here: cell number channel AC50, cells fed with added oleic acid.

For the compound `CC1=CCC2C(=O)N(c3ccccc3OC(=O)c3ccccc3F)C(=O)C2C1` (stereo not drawn), the cell number change was -2.82%. The AC50 under setting [1] was 0.58 µM [rising, full curve]. Consider `COc1ccccc1-c1c(C)oc2cc(OCC(=O)OCc3ccccc3)ccc2c1=O`, for which the cell number change was determined as 0.367%. For the compound `O=C(CCNC(=O)c1ccccc1Cl)Nc1nc(-c2ccc3ccccc3c2)cs1`, the cell number change was 3.34%. Also, the AC50 under setting [1] was 0.58 µM [rising, single point]. As for `CCOC(=O)c1nn(-c2ccc3c(c2)CCN3C(C)=O)cc1O`, the cell number change was -16.8%. For the same compound, the AC50 under setting [1] is 0.184 µM [rising, full curve, poor fit]. On to `CCCOc1ccc(-c2nc(C#N)c(N3CCc4ccccc4C3)o2)cc1`, for which the cell number change amounted to 6.83%. In the case of `Cc1ccc(-c2csc3nc(C)n(N)c(=O)c23)cc1`, the cell number change came out at 31.4%. Further, the AC50 under setting [2] was 18.4 µM [rising, single point]. For `CCCCN(C(=O)COc1ccc(NC(C)=O)cc1)C1CCS(=O)(=O)C1` (stereo not drawn), the cell number change was 28.6%. On to `CC(=O)c1c(C)[nH]c(C(=O)COC(=O)CCSc2ccccc2)c1C`, for which the cell number change was -35%. Besides, under setting [2], the AC50 is 1.84 µM [falling, partial curve]. Also, the AC50 under setting [1] was 6.51 µM [rising, full curve, poor fit]. `O=C(O)c1cc(NC(=O)c2ccccc2[N+](=O)[O-])ccc1O`: the cell number change came to 2.81%.

`COc1cc(NC(=O)c2cnn3c(C(F)F)cc(C4CC4)nc23)c(OC)cc1Cl`: the cell number change is 10.6%. For the same compound, the AC50 under setting [2] was 3.66 µM [rising, single point]. Under setting [1], the AC50 was 2.59 µM [rising, partial curve, poor fit]. As to `COc1ccc(CNC(=O)C(=O)c2cn(CC(=O)N3CCCC3)c3ccccc23)cc1`, the cell number change was -27.7%. Further, under setting [2], the AC50 was 3.26 µM [falling, full curve, poor fit].

For `Cc1cc(Cl)ccc1OCCCC(=O)Nc1cccc(-n2cnnn2)c1`, the cell number change worked out at 21.5%. Regarding `O=C(CCc1ccccc1)Nc1ccc2c(c1)OCO2`, the cell number change is -16.3%. For the same compound, the AC50 under setting [1] was 29.1 µM [rising, single point]. `Cc1ccc(N2C(=N)SCC2=O)cc1Cl`: the AC50 under setting [1] is 3.66 µM [falling, single point]. Still for that read-out and setting: the same measure for `CC(NC(=O)COC(=O)CCN1C(=O)C2CC=CCC2C1=O)c1ccc(Br)cc1` (stereo not drawn): 0.00461 µM [falling, full curve, poor fit]. On to `COc1ccc(CCCc2nnc(SCC(=O)Nc3nc(C)cs3)n2C)cc1`, for which the cell number change was -53.6%. For the same compound, under setting [2], the AC50 is 16.4 µM [falling, partial curve]. The concentration at half-maximal activity (AC50) under setting [1] is 14.6 µM [falling, partial curve]. For `CCOC(=O)N1CCN(S(=O)(=O)c2ccc(C(=O)N(CCCN(C)C)c3nc4cc(OC)ccc4s3)cc2)CC1`, under setting [2], the AC50 is 3.66 µM [rising, partial curve]. In the case of `CCc1cccc(NC(=O)c2ccc(NS(=O)(=O)c3c(C)noc3C)cc2)c1`, the cell number change is -18.1%. Further, the AC50 under setting [1] was 4.11 µM [falling, full curve, poor fit]. For the compound `CCCC(=O)NC(=S)N1CCN(c2ccc([N+](=O)[O-])cc2)CC1`, the cell number change was -56.4%. Under setting [2], the AC50 was 20.6 µM [falling, single point]. The AC50 under setting [1] is 29.1 µM [falling, single point]. As to `COc1ccc(O[C@H]2C=C[C@@H](c3ccccc3)O[C@@H]2COC(=O)CC/C(C)=N/OC[C@@H](O)COCc2ccco2)cc1`, the cell number change came out at 0.503%. The AC50 under setting [1] is 10.3 µM [rising, partial curve]. For `Cc1ccccc1N1CCN(Cc2c(C#N)c3ccccc3n2C)CC1`, the cell number change is -14.5%. The AC50 under setting [2] is 6.51 µM [rising, single point]. As for `O=C(CCl)Nc1ccc(Oc2cnc3ccccc3n2)cc1`, the cell number change is -10.9%. Consider `Cc1cc(C)n2nc3nc(N4CCCC4)nc(-c4ccccc4)c3c2n1`, for which the cell number change is -12.1%. Under setting [1], the AC50 was 0.116 µM [rising, full curve, poor fit]. Regarding `Cc1cc(C)c(NC(=O)C2CCCCN2C)c(C)c1` (stereo not drawn), the cell number change is -13.9%. Moreover, the AC50 under setting [1] was 3.66 µM [rising, full curve, poor fit].

As for `Clc1ccc(-c2nnc(-c3ccccc3)nc2N2CCSCC2)cc1`, the cell number change is 14.3%. The AC50 under setting [1] is 29.1 µM [rising, single point]. For `Cc1c(C(=O)Nc2ccncc2)oc2ccccc12`, the cell number change is -18%. Further, the AC50 under setting [1] is 0.146 µM [rising, full curve, poor fit]. Take `Cc1ccc(SCCC(=O)N/N=C/c2cccnc2)cc1`: the cell number change was -46.3%. Further, under setting [2], the AC50 is 29.1 µM [falling, single point]. The AC50 under setting [1] is 3.66 µM [rising, single point]. `CC(=O)c1ccc(N2CCN(C(=O)/C=C/c3cccs3)CC2)cc1`: the cell number change was -4.19%. In addition, under setting [2], the AC50 is 0.231 µM [rising, full curve]. Besides, the AC50 under setting [1] is 1.16 µM [rising, full curve].

Take `Cc1cc2oc(=O)cc(CN3CCCCC3C)c2cc1Cl` (stereo not drawn): the cell number change was -1.39%. As for `COc1ccccc1CN(Cc1nc2ccccc2c(=O)[nH]1)C(=O)Nc1cccc(C)c1`, the cell number change was -2.89%. Moreover, the AC50 under setting [1] is 6.51 µM [rising, single point]. `Cc1cccc(/C=C2\Sc3ccc(C(=O)N4CCOCC4)cc3N(C)C2=O)c1`: the cell number change was -20.4%. In addition, the AC50 under setting [2] is 1.46 µM [falling, full curve, poor fit]. Under setting [1], the AC50 was 6.51 µM [falling, single point]. For `CCOc1ccc(CNC(=O)C(C)n2ccc3cc(S(=O)(=O)N4CCCC4)ccc32)cc1` (stereo not drawn), the cell number change was -18.1%. The AC50 under setting [1] was 0.146 µM [rising, full curve, poor fit]. `CCC(=O)Nc1ccc2ccccc2c1`: the cell number change was 9.03%. Further, the half-maximal activity concentration (AC50) under setting [1] was 18.4 µM [rising, single point]. `COc1ccccc1-c1cc(C(=O)N/N=C\c2cnn(C)c2C)c2ccccc2n1`: the cell number change was determined as 42.4%. Also, the AC50 under setting [2] was 6.51 µM [rising, partial curve]. For the compound `O=C(COC(=O)c1cc(S(=O)(=O)N2CCCC2)ccc1O)NCCc1ccccc1`, the cell number change turned out to be 3.02%. In addition, the AC50 under setting [1] was 0.517 µM [falling, single point].

On to `O=C(CCN1C(=O)C2C3CCC(C3)C2C1=O)Nc1cccc(Cl)c1` (stereo not drawn), for which the cell number change is 1.94%. For the same compound, the AC50 under setting [1] is 0.92 µM [rising, partial curve, poor fit]. As for `Cc1noc(-c2ccc(C(F)(F)F)cc2)c1NC(=O)Nc1ccc(Cl)cc1`, the cell number change is -53.1%. Further, under setting [1], the AC50 is 20.6 µM [falling, partial curve, poor fit]. With `CCCC(=O)Nc1nc2ccc(NC(=O)c3cccnc3)cc2s1`, the cell number change came out at 7.86%. The half-maximal activity concentration (AC50) under setting [1] is 2.06 µM [rising, partial curve, poor fit].
